Source: paper doi:10.1101/2025.01.14.633073
Results are given in words; binding and its absence hold for the method and conditions named. In cells and extracts the contact can be indirect. Some results given as binding are weak or reduced against the parent protein; the word gives no strength.

Molecular target: Inositol-Requiring Enzyme 1 (IRE-1), human (human (endogenous in A549)), O75460
Test: co-IP
Details: remark: other sources report otherwise

binding: binds
B1: Sec-62, human, Q99442 1-399 (protein)
chain: MAERRRHKKRIQEVGEPSKEEKAVAKYLRFNCPTKSTNMMGHRVDYFIASKAVDCLLDSKWAKAKKGEEALFTTRESVVDYCNRLLKKQFFHRALKVMKMKYDKDIKKEKDKGKAESGKEEDKKSKKENIKDEKTKKEKEKKKDGEKEESKKEETPGTPKKKETKKKFKLEPHDDQVFLDGNEVYVWIYDPVHFKTFVMGLILVIAVIAATLFPLWPAEMRVGVYYLSVGAGCFVASILLLAVARCILFLIIWLITGGRHHFWFLPNLTADVGFIDSFRPLYTHEYKGPKADLKKDEKSETKKQQKSDSEEKSDSEKKEDEEGKVGPGNHGTEGSGGERHSDTDSDRREDDRSQHSSGNGNDFEMITKEELEQQTDGDCEEDEEEENDGETPKSSHEKS
